Results published in the supplement of paper PMC8728848.
The list shows a part of the results.

Tests used:
Assay in all cases: glycan array binding signal (z-score within array); higher = stronger binding
Details in all cases: glycan notation: IUPAC condensed, linker removed
[1] = molecular target: Neu5Ac(a2-6)Gal(b1-3)GlcNAc(b1-3)[Gal(b1-4)GlcNAc(b1-6)]Gal(b1-4)Glc
Outline: (§1)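 Columns mapping to the same glycan were averaged after glycan names were converted to IUPAC-condensed notation. The data come from 3228 arrays in the Consortium for Functional Glycomics database, limited to those with an available protein sequence. Binding is reported as a within-array Z-score averaged across arrays of one protein sequence and across linkers.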

[2] = molecular target: Neu5Ac(a2-6)Gal(b1-4)Glc
Outline: as §1

[3] = molecular target: Neu5Ac(a2-6)Gal(b1-4)GlcNAc
Outline: as §1

[4] = molecular target: Neu5Ac(a2-6)Gal(b1-4)GlcNAc(b1-2)Man
Outline: as §1

[5] = molecular target: Neu5Ac(a2-6)Gal(b1-4)GlcNAc(b1-2)Man(a1-3)Man(b1-4)GlcNAc(b1-4)GlcNAc
Outline: as §1

[6] = molecular target: Neu5Ac(a2-6)Gal(b1-4)GlcNAc(b1-2)Man(a1-3)[Gal(b1-4)GlcNAc(b1-2)Man(a1-6)]Man(b1-4)GlcNAc(b1-4)GlcNAc
Outline: as §1

[7] = molecular target: Neu5Ac(a2-6)Gal(b1-4)GlcNAc(b1-2)Man(a1-3)[GlcNAc(b1-2)Man(a1-6)]Man(b1-4)GlcNAc(b1-4)GlcNAc
Outline: as §1

[8] = molecular target: Neu5Ac(a2-6)Gal(b1-4)GlcNAc(b1-2)Man(a1-3)[GlcNAc(b1-4)][Neu5Ac(a2-6)Gal(b1-4)GlcNAc(b1-2)Man(a1-6)]Man(b1-4)GlcNAc(b1-4)GlcNAc
Outline: as §1

[9] = molecular target: Neu5Ac(a2-6)Gal(b1-4)GlcNAc(b1-2)Man(a1-3)[Man(a1-6)]Man(b1-4)GlcNAc(b1-4)GlcNAc
Outline: as §1

[10] = molecular target: Neu5Ac(a2-6)Gal(b1-4)GlcNAc(b1-2)Man(a1-3)[Neu5Ac(a2-3)Gal(b1-4)GlcNAc(b1-2)Man(a1-6)]Man(b1-4)GlcNAc(b1-4)GlcNAc
Outline: as §1

[11] = molecular target: Neu5Ac(a2-6)Gal(b1-4)GlcNAc(b1-2)Man(a1-3)[Neu5Ac(a2-6)Gal(b1-4)GlcNAc(b1-2)Man(a1-6)]Man(b1-4)GlcNAc(b1-4)GlcNAc
Outline: as §1

[12] = molecular target: Neu5Ac(a2-6)Gal(b1-4)GlcNAc(b1-2)Man(a1-3)[Neu5Ac(a2-6)Gal(b1-4)GlcNAc(b1-2)Man(a1-6)]Man(b1-4)GlcNAc(b1-4)[Fuc(a1-6)]GlcNAc
Outline: as §1

[13] = molecular target: Neu5Ac(a2-6)Gal(b1-4)GlcNAc(b1-2)Man(a1-6)Man(b1-4)GlcNAc(b1-4)GlcNAc
Outline: as §1

[14] = molecular target: Neu5Ac(a2-6)Gal(b1-4)GlcNAc(b1-2)Man(a1-6)[Gal(b1-4)GlcNAc(b1-2)Man(a1-3)]Man(b1-4)GlcNAc(b1-4)GlcNAc
Outline: as §1

[15] = molecular target: Neu5Ac(a2-6)Gal(b1-4)GlcNAc(b1-2)Man(a1-6)[GlcNAc(b1-2)Man(a1-3)]Man(b1-4)GlcNAc(b1-4)GlcNAc
Outline: as §1

[16] = molecular target: Neu5Ac(a2-6)Gal(b1-4)GlcNAc(b1-2)Man(a1-6)[Man(a1-3)]Man(b1-4)GlcNAc(b1-4)GlcNAc
Outline: as §1

[17] = molecular target: Neu5Ac(a2-6)Gal(b1-4)GlcNAc(b1-2)[Neu5Ac(a2-6)Gal(b1-4)GlcNAc(b1-4)]Man(a1-3)[GlcNAc(b1-4)][Neu5Ac(a2-6)Gal(b1-4)GlcNAc(b1-2)[Neu5Ac(a2-6)Gal(b1-4)GlcNAc(b1-6)]Man(a1-6)]Man(b1-4)GlcNAc(b1-4)GlcNAc
Outline: as §1

[18] = molecular target: Neu5Ac(a2-6)Gal(b1-4)GlcNAc(b1-2)[Neu5Ac(a2-6)Gal(b1-4)GlcNAc(b1-4)]Man(a1-3)[GlcNAc(b1-4)][Neu5Ac(a2-6)Gal(b1-4)GlcNAc(b1-4)Man(a1-6)]Man(b1-4)GlcNAc(b1-4)GlcNAc
Outline: as §1

[19] = molecular target: Neu5Ac(a2-6)Gal(b1-4)GlcNAc(b1-2)[Neu5Ac(a2-6)Gal(b1-4)GlcNAc(b1-6)]Man(a1-6)[Neu5Ac(a2-6)Gal(b1-4)GlcNAc(b1-2)Man(a1-3)][GlcNAc(b1-4)]Man(b1-4)GlcNAc(b1-4)GlcNAc
Outline: as §1

[20] = molecular target: Neu5Ac(a2-6)Gal(b1-4)GlcNAc(b1-3)Gal(b1-3)GlcNAc
Outline: as §1

[21] = molecular target: Neu5Ac(a2-6)Gal(b1-4)GlcNAc(b1-3)Gal(b1-4)GlcNAc
Outline: as §1

[22] = molecular target: Neu5Ac(a2-6)Gal(b1-4)GlcNAc(b1-3)Gal(b1-4)GlcNAc(b1-2)Man(a1-3)[Neu5Ac(a2-6)Gal(b1-4)GlcNAc(b1-3)Gal(b1-4)GlcNAc(b1-2)Man(a1-6)]GalNAc
Outline: as §1

[23] = molecular target: Neu5Ac(a2-6)Gal(b1-4)GlcNAc(b1-3)Gal(b1-4)GlcNAc(b1-3)Gal(b1-4)GlcNAc
Outline: as §1

[24] = molecular target: Neu5Ac(a2-6)Gal(b1-4)GlcNAc(b1-3)Gal(b1-4)GlcNAc(b1-3)Gal(b1-4)GlcNAc(b1-2)Man(a1-3)[Neu5Ac(a2-6)Gal(b1-4)GlcNAc(b1-3)Gal(b1-4)GlcNAc(b1-3)Gal(b1-4)GlcNAc(b1-2)Man(a1-6)]GalNAc
Outline: as §1

[25] = molecular target: Neu5Ac(a2-6)Gal(b1-4)GlcNAc(b1-3)Gal(b1-4)GlcNAc(b1-3)GalNAc
Outline: as §1

[26] = molecular target: Neu5Ac(a2-6)Gal(b1-4)GlcNAc(b1-3)Gal(b1-4)GlcNAc(b1-3)[Neu5Ac(a2-6)Gal(b1-4)GlcNAc(b1-3)Gal(b1-4)GlcNAc(b1-6)]GalNAc
Outline: as §1

[27] = molecular target: Neu5Ac(a2-6)Gal(b1-4)GlcNAc(b1-3)Gal(b1-4)GlcNAc(b1-6)[Gal(b1-3)]GalNAc
Outline: as §1

[28] = molecular target: Neu5Ac(a2-6)Gal(b1-4)GlcNAc(b1-3)Gal(b1-4)[Fuc(a1-3)]GlcNAc(b1-3)Gal(b1-4)[Fuc(a1-3)]GlcNAc
Outline: as §1

[29] = molecular target: Neu5Ac(a2-6)Gal(b1-4)GlcNAc(b1-3)GalNAc
Outline: as §1

[30] = molecular target: Neu5Ac(a2-6)Gal(b1-4)GlcNAc(b1-3)[Neu5Ac(a2-6)Gal(b1-4)GlcNAc(b1-6)]GalNAc
Outline: as §1

[31] = molecular target: Neu5Ac(a2-6)Gal(b1-4)GlcNAc(b1-6)GalNAc
Outline: as §1

[32] = molecular target: Neu5Ac(a2-6)Gal(b1-4)GlcNAc(b1-6)[Gal(b1-3)GlcNAc(b1-3)]Gal(b1-4)Glc
Outline: as §1

[33] = molecular target: Neu5Ac(a2-6)Gal(b1-4)GlcNAc(b1-6)[Gal(b1-3)]GalNAc
Outline: as §1

[34] = molecular target: Neu5Ac(a2-6)Gal(b1-4)GlcNAc6S
Outline: as §1

[35] = molecular target: Neu5Ac(a2-6)GalNAc
Outline: as §1

[36] = molecular target: Neu5Ac(a2-6)GalNAc(b1-4)GlcNAc
Outline: as §1

[37] = molecular target: Neu5Ac(a2-6)GalNAc(b1-4)GlcNAc6S
Outline: as §1

[38] = molecular target: Neu5Ac(a2-6)GlcNAc(b1-4)GlcNAc
Outline: as §1

B1: LF82 (Escherichia coli) (protein)
chain: ADWGPCRTASGDPFIFVTSFTKNIQNPTDNVTGQTYPDFYQWALGDKYSGVCECPSPNPTEARPTLYKTESTLAAGHNSTYFKITNNLEVSTRVYIANVGNVQVPFINKSNSQPGRECDQPTFGWTTGSKGQLSLYIAKPFVGEQNIPQTIIVSVFGTKKENVYSSVPISQVLLSGKVTVTQGCELAAGTSLDIDFGEYQAHDFKGRTGQPPQNVQKIQKELTFNCTNISDGVHIYLSLEGTPNAAYPSAISLGNADVGAVIEDGKGNILKPNDSNSLLEMNPGSLYEYVKRKVTTTITAYPVSTTGKLPAAGDYSGVATMHVELDGGGGGGGGGGATTDLGAKGTLKFSLKISQGHHHHHH
B1 was tested, and the “glycan array binding signal (z-score)” value [1] was 2.17, the “glycan array binding signal (z-score)” value [2] was -0.089 and the “glycan array binding signal (z-score)” value [3] was -0.085. The “glycan array binding signal (z-score)” value [4] was -0.733, the “glycan array binding signal (z-score)” value [5] was 0.186 and the “glycan array binding signal (z-score)” value [6] was 2.29. The “glycan array binding signal (z-score)” value [7] was 0.59, the “glycan array binding signal (z-score)” value [8] was 0.413 and the “glycan array binding signal (z-score)” value [9] was 0.519. For the same binder, the “glycan array binding signal (z-score)” value [10] was -0.052, the “glycan array binding signal (z-score)” value [11] was -0.056 and the “glycan array binding signal (z-score)” value [12] was -0.085. For the same binder, the “glycan array binding signal (z-score)” value [13] was 0.902, the “glycan array binding signal (z-score)” value [14] was 0.283 and the “glycan array binding signal (z-score)” value [15] was -0.805. The “glycan array binding signal (z-score)” value [16] was 0.813, the “glycan array binding signal (z-score)” value [17] was -0.903 and the “glycan array binding signal (z-score)” value [18] was -0.76. For the same binder, the “glycan array binding signal (z-score)” value [19] was -0.002, the “glycan array binding signal (z-score)” value [20] was -0.797 and the “glycan array binding signal (z-score)” value [21] was -0.824. For the same binder, the “glycan array binding signal (z-score)” value [22] was 0.015, the “glycan array binding signal (z-score)” value [23] was 0.668 and the “glycan array binding signal (z-score)” value [24] was 0.574. The “glycan array binding signal (z-score)” value [25] was -0.729, the “glycan array binding signal (z-score)” value [26] was 0.949 and the “glycan array binding signal (z-score)” value [27] was 0.883. The “glycan array binding signal (z-score)” value [28] was 0.159, the “glycan array binding signal (z-score)” value [29] was -0.16 and the “glycan array binding signal (z-score)” value [30] was 1.29. For the same binder, the “glycan array binding signal (z-score)” value [31] was -0.504, the “glycan array binding signal (z-score)” value [32] was -0.769 and the “glycan array binding signal (z-score)” value [33] was 1.2. The “glycan array binding signal (z-score)” value [34] was -0.632, the “glycan array binding signal (z-score)” value [35] was -1.27 and the “glycan array binding signal (z-score)” value [36] was -0.387. For the same binder, the “glycan array binding signal (z-score)” value [37] was 0.356 and the “glycan array binding signal (z-score)” value [38] was 0.052.
